Measured values taken from the supplement of paper PMC10849652.
This is one part of the list.

Protein sequences, listed by entry. Tags and fused reporters are not part of them. Lines headed by an entry give the natural chain unless they say otherwise; changes in a name come on top.
UniProt O43175: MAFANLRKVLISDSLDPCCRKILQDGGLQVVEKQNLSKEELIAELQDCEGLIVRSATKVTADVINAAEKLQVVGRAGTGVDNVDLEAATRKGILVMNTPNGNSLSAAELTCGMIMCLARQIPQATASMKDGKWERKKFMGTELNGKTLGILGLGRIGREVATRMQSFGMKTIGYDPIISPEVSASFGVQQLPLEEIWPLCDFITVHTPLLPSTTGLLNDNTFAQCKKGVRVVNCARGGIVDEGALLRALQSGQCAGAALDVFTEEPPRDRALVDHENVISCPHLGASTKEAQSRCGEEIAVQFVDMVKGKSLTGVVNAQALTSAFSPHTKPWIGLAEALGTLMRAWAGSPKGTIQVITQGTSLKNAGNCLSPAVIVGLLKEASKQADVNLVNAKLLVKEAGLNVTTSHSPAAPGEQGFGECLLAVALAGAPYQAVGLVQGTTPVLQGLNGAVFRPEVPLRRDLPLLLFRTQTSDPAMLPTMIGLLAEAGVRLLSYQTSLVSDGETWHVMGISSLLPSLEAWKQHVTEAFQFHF
UniProt Q8WUB8: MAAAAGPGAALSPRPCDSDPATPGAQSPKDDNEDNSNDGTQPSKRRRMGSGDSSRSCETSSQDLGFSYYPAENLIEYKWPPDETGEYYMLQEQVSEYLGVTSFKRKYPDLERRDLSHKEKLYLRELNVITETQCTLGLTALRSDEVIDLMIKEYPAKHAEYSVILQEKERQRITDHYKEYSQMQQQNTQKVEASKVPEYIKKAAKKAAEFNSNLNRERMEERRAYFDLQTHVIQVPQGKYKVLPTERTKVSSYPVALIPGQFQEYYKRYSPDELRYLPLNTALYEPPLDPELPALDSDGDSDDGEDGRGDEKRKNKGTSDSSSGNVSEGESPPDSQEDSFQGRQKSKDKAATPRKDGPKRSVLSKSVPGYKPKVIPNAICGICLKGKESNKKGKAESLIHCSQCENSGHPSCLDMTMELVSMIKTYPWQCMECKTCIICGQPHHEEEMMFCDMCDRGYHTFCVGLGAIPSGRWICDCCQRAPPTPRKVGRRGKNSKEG
UniProt Q9NRX4: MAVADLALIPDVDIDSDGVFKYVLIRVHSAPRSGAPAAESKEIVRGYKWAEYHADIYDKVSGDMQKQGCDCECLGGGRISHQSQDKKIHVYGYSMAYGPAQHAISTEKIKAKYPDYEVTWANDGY
UniProt Q7RTV0, whole entry, looked up: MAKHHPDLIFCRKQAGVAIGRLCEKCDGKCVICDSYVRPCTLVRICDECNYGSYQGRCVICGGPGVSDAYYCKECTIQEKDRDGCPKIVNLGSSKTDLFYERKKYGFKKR
UniProt Q9BTU6: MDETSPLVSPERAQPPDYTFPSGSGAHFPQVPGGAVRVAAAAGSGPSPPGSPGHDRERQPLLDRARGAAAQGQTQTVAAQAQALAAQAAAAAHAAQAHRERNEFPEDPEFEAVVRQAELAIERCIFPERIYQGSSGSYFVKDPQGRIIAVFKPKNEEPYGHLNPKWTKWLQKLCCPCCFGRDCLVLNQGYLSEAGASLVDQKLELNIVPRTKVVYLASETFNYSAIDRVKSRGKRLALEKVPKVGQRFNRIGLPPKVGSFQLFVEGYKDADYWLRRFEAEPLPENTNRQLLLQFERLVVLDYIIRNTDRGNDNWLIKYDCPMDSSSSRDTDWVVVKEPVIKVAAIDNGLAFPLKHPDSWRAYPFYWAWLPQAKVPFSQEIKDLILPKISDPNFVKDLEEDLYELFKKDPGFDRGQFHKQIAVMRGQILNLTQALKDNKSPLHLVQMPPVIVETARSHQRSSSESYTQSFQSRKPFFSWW
UniProt Q15149: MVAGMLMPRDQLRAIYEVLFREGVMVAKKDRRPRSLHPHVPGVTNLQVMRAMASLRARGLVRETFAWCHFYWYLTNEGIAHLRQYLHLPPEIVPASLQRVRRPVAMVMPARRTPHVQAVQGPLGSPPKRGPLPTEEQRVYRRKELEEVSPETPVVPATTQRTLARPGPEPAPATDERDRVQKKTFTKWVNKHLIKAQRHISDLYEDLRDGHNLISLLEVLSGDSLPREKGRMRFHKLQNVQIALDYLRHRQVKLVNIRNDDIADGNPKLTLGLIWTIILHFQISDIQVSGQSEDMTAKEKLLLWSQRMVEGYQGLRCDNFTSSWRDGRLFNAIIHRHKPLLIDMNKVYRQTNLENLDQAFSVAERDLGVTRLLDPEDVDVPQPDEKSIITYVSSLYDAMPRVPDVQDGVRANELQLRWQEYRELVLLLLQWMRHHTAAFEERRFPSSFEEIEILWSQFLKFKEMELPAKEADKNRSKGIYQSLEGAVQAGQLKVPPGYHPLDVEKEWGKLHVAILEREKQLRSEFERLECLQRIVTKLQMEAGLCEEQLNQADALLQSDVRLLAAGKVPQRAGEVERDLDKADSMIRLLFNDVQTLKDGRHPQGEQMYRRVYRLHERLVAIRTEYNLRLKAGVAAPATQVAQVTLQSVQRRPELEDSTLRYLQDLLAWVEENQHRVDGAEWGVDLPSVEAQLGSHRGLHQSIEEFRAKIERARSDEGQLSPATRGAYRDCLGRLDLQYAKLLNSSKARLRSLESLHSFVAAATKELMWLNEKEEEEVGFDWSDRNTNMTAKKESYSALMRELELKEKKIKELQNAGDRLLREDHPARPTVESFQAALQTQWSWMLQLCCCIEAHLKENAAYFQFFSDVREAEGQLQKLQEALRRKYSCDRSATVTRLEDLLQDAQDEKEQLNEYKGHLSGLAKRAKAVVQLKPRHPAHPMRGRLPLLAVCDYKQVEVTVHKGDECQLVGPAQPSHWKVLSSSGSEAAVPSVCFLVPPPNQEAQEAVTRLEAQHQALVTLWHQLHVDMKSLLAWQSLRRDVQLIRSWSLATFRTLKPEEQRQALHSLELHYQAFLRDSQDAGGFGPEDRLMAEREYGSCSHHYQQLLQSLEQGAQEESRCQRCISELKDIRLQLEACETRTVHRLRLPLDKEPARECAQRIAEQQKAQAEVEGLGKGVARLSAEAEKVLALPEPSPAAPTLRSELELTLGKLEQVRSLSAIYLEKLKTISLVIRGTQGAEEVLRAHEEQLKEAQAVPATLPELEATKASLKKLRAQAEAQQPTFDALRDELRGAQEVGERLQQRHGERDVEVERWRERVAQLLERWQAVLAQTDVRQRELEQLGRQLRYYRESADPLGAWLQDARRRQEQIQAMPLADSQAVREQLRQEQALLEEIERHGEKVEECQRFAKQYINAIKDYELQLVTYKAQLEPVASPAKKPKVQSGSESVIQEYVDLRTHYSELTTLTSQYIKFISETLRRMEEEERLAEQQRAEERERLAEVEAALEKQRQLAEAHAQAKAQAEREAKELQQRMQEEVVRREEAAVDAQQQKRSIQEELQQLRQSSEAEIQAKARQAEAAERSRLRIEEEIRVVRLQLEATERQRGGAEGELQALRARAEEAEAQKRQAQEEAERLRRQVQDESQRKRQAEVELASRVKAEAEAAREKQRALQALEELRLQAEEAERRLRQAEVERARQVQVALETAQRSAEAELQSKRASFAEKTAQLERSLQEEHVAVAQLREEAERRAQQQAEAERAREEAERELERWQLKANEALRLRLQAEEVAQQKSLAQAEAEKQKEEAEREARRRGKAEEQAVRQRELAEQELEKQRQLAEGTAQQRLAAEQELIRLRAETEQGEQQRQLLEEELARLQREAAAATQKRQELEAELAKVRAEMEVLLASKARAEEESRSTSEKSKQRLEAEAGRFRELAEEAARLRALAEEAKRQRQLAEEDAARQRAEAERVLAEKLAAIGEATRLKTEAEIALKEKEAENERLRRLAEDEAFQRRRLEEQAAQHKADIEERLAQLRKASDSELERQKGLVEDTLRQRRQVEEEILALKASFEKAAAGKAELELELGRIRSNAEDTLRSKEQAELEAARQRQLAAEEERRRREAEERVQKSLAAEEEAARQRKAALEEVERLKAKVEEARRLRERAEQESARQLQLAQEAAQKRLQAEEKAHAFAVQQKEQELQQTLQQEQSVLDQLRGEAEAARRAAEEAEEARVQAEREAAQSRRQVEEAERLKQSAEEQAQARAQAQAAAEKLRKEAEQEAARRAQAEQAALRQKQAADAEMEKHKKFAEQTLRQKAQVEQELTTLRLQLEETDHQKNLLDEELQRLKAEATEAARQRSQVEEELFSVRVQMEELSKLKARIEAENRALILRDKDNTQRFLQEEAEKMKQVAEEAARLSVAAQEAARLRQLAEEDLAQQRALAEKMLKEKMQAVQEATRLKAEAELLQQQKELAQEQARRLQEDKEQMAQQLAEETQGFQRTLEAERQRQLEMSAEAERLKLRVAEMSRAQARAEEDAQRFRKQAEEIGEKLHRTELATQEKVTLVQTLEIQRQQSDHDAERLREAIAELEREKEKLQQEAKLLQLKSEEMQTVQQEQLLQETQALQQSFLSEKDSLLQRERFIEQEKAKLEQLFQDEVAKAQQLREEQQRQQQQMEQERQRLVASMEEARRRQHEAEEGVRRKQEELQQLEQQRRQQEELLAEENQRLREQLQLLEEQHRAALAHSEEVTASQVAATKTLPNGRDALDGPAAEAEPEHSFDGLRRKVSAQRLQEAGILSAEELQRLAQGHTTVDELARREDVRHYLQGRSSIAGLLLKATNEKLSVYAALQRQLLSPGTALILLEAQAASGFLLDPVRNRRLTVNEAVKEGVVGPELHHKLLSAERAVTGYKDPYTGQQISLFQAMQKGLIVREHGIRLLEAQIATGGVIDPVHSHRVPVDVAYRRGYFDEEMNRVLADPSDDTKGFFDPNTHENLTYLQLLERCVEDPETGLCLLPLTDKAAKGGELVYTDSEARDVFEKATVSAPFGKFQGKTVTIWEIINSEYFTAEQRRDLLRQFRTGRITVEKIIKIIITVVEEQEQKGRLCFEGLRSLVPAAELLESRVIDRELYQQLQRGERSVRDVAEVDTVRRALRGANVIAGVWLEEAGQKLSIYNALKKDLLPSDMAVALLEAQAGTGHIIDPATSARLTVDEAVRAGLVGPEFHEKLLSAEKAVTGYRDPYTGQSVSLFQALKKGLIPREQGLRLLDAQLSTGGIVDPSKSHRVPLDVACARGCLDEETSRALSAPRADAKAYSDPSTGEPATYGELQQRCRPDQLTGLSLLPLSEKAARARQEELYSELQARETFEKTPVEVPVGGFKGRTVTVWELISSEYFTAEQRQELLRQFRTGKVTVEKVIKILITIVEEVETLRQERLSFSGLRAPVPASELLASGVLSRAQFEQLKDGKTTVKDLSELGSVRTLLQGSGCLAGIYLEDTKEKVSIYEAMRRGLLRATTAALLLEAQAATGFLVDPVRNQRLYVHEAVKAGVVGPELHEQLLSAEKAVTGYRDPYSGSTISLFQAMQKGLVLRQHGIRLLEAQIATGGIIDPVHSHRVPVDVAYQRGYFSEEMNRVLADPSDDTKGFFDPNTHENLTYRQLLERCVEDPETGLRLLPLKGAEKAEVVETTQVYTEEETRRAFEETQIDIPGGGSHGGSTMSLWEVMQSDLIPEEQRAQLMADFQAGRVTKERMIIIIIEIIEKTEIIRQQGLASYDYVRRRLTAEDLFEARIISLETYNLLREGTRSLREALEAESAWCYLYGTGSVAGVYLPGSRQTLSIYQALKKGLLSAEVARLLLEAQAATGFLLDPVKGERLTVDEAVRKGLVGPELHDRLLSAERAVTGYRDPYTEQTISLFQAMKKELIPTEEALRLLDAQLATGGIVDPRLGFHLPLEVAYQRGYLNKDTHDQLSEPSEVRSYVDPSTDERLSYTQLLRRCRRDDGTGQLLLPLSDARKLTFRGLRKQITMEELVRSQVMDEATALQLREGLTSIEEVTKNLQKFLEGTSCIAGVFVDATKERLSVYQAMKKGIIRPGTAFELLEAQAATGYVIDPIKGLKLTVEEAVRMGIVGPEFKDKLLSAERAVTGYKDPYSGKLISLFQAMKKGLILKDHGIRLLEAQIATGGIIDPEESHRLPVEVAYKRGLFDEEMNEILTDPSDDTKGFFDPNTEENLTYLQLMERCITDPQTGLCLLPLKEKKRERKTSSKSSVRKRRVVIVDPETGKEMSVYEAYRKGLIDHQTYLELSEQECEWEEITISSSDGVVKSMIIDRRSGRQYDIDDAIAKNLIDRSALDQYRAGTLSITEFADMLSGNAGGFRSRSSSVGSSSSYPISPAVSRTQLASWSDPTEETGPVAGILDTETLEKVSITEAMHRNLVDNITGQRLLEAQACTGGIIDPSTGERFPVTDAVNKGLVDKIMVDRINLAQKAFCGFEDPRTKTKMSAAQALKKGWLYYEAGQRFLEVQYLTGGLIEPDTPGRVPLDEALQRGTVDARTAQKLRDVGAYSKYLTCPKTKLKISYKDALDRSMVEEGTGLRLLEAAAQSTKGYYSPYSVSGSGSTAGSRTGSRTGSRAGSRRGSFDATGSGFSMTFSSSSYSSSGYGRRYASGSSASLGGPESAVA

Tests used:
Assay in all cases: log2 fold change, soluble protein after heating vs DMSO (PISA); higher = thermal stabilisation; K562 lysate, 10 uM; active = over 0.2 and 3.5 SD of the protein, either way, in both replicates (recomputed)
nilotinib = compound: Cc1cn(-c2cc(NC(=O)c3ccc(C)c(Nc4nccc(-c5cccnc5)n4)c3)cc(C(F)(F)F)c2)cn1 [nilotinib]
Summary of the method: (§1)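 Dounce homogenisation of K562 pellets in PBS pH 7.4 with 1 mM MgCl2 produced a crude extract, used at 1 mg/mL protein. Exposure to 10 μM compound lasted 30 min, and aliquots were then heated for 3 min across 48°C-58°C, pooled and brought to 0.5% NP-40 at 4°C. The supernatant after 21,000xg for 90 min was quantified by TMTpro 16plex LC-MS/MS with channel sums equalised. Duplicate values are given as log-two fold change in thermal stability relative to solvent controls.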

[1] = compound: Cc1nc(Nc2n[nH]c3c2CN(C(=O)N[C@H](CN(C)C)c2ccccc2)C3(C)C)c2sccc2n1
Summary of the method: as §1

dasatinib = compound: Cc1nc(Nc2ncc(C(=O)Nc3c(C)cccc3Cl)s2)cc(N2CCN(CCO)CC2)n1 [dasatinib]
Summary of the method: as §1

[2] = compound: Cc1ncc(-c2ccnc(Nc3ccc(S(C)(=O)=O)cc3)n2)n1C(C)C
Summary of the method: as §1

[3] = compound: Cn1cc(-c2ccc3c(c2)CCN3C(=O)Cc2cccc(C(F)(F)F)c2)c2c(N)ncnc21
Summary of the method: as §1

quisinostat = compound: Cn1cc(CNCC2CCN(c3ncc(C(=O)NO)cn3)CC2)c2ccccc21 [quisinostat]
Summary of the method: as §1

tipifarnib = compound: Cn1cncc1[C@@](N)(c1ccc(Cl)cc1)c1ccc2c(c1)c(-c1cccc(Cl)c1)cc(=O)n2C [tipifarnib]
Summary of the method: as §1

[4] = compound: NC(=O)Nc1cc(-c2cccc(F)c2)sc1C(=O)N[C@H]1CCCNC1
Summary of the method: as §1

[5] = compound: NC(=O)c1cnc(N[C@@H]2CCCC[C@@H]2N)nc1Nc1cccc(-n2nccn2)c1
Summary of the method: as §1

[6] = compound: NC1(c2ccc(-c3nc4ccn5c(=O)[nH]nc5c4cc3-c3ccccc3)cc2)CCC1
Summary of the method: as §1

[7] = compound: NCC(=O)Nc1ccc(-n2nc(C(F)(F)F)cc2-c2ccc3c(ccc4ccccc43)c2)cc1
Summary of the method: as §1

vorinostat = compound: O=C(CCCCCCC(=O)Nc1ccccc1)NO [vorinostat]
Summary of the method: as §1

silmitasertib = compound: O=C(O)c1ccc2c(c1)nc(Nc1cccc(Cl)c1)c1ccncc12 [silmitasertib]
Summary of the method: as §1

[8] = compound: O=C1NC(=O)C(c2cnc3ccccn23)=C1c1cn2c3c(cc(F)cc13)CN(C(=O)N1CCCCC1)CC2
Summary of the method: as §1

entospletinib = compound: c1cn2cc(-c3ccc4cn[nH]c4c3)nc(Nc3ccc(N4CCOCC4)cc3)c2n1 [entospletinib]
Summary of the method: as §1

Target	log2 fold change (nilotinib)	log2 fold change [1]	log2 fold change (dasatinib)	log2 fold change [2]	log2 fold change [3]	log2 fold change (quisinostat)	log2 fold change (tipifarnib)	log2 fold change [4]	log2 fold change [5]	log2 fold change [6]	log2 fold change [7]	log2 fold change (vorinostat)	log2 fold change (silmitasertib)	log2 fold change [8]	log2 fold change (entospletinib)
PHGDH (UniProt O43175)	inactive: 0.013	inactive: -0.025	inactive: -0.077	inactive: 0.005	inactive: 0.021	inactive: -0.032	inactive: 0.018	inactive: -0.032	inactive: 0.006	inactive: 0.054	inactive: 0.023	active: -0.939	inactive: 0.031	inactive: 0.028	inactive: 0.016
PHKA1 (UniProt P46020)	inactive: -0.059	inactive: 0.14	inactive: -0.138	inactive: -0.007	inactive: 0.029	inactive: -0.072	inactive: -0.021	active: 0.272	inactive: 0.091	inactive: -0.053	inactive: 0.002	active: -0.223	inactive: 0.184	inactive: -0.001	inactive: -0.01
PHF23 (UniProt Q9BUL5)	inactive: 0.033	inactive: 0.019	inactive: 0.026	inactive: -0.016	inactive: 0.042	inactive: -0.028	inactive: 0.031	inactive: 0.019	inactive: -0.056	inactive: 0.038	inactive: 0.023	inactive: 0.059	inactive: 0	inactive: -0.029	inactive: 0
PHF10 (UniProt Q8WUB8)	inactive: 0.007	inactive: 0.066	inactive: 0.028	inactive: -0.026	inactive: -0.001	inactive: -0.023	inactive: -0.02	inactive: 0.065	inactive: 0.007	inactive: -0.006	inactive: -0.007	inactive: 0.024	inactive: -0.047	inactive: 0.054	inactive: 0.015
PGRMC2 isoform 2 (UniProt O15173)	inactive: 0.038	inactive: -0.025	inactive: 0.019	inactive: -0.045	inactive: 0.009	inactive: -0.012	inactive: 0.003	inactive: -0.021	inactive: 0.022	inactive: 0.047	inactive: -0.023	inactive: 0.015	inactive: -0.028	inactive: 0.01	inactive: 0.009
PLD3 (UniProt Q8IV08)	inactive: -0.01	inactive: -0.013	inactive: -0.029	inactive: -0.01	inactive: 0.01	inactive: -0.046	inactive: -0.022	inactive: 0.042	inactive: 0.02	inactive: 0.019	inactive: -0.012	inactive: 0.073	inactive: 0.017	inactive: -0.031	inactive: 0.013
PHPT1 (UniProt Q9NRX4)	inactive: 0.004	inactive: -0.027	inactive: 0.03	inactive: 0.025	inactive: 0.007	inactive: 0.014	inactive: 0.056	inactive: -0.01	inactive: -0.02	inactive: 0.073	inactive: -0.014	inactive: 0.073	inactive: 0.02	inactive: -0.028	inactive: 0
PIBF1 (UniProt Q8WXW3)	inactive: 0.039	inactive: -0.011	inactive: 0.007	inactive: 0.045	inactive: 0.05	inactive: -0.058	inactive: -0.025	inactive: 0.015	inactive: 0.062	inactive: 0.037	inactive: 0.035	inactive: -0.048	inactive: 0.019	inactive: -0.024	inactive: -0.012
PGK1 (UniProt P00558)	inactive: 0.014	inactive: -0.017	inactive: -0.008	inactive: 0.01	inactive: -0.011	inactive: 0.035	inactive: 0.03	inactive: 0.002	inactive: -0.009	inactive: 0.001	inactive: 0.014	inactive: 0.013	inactive: -0.008	inactive: 0.001	inactive: 0.003
PI4KB (UniProt Q9UBF8)	inactive: 0.003	inactive: 0.145	inactive: 0.002	inactive: 0.165	inactive: 0.013	inactive: -0.072	inactive: -0.024	inactive: -0.026	inactive: -0.049	inactive: -0.014	inactive: -0.085	inactive: -0.132	inactive: 0.151	inactive: -0.044	inactive: 0.184
PHF5A (UniProt Q7RTV0)	inactive: 0.012	inactive: 0.007	inactive: 0.031	inactive: 0.04	inactive: 0.026	inactive: 0.165	inactive: 0.05	inactive: -0.023	inactive: -0.017	inactive: 0.031	inactive: -0.015	inactive: 0.087	inactive: 0	inactive: 0.072	inactive: 0.03
PICK1 (UniProt Q9NRD5)	inactive: 0.018	inactive: -0.061	inactive: 0.047	inactive: -0.009	inactive: 0.021	inactive: 0.105	inactive: -0.028	inactive: -0.007	inactive: 0.008	inactive: -0.001	inactive: -0.062	inactive: -0.09	inactive: -0.079	inactive: 0.008	inactive: -0.013
PHB2 (UniProt Q99623)	inactive: 0	inactive: 0	inactive: 0.003	inactive: 0.004	inactive: 0.008	inactive: -0.013	inactive: -0.017	inactive: -0.018	inactive: -0.007	inactive: 0.006	inactive: 0.015	inactive: 0.121	inactive: 0.003	inactive: -0.023	inactive: 0
PLCB3 (UniProt Q01970)	inactive: -0.015	inactive: -0.011	inactive: 0.009	inactive: -0.012	inactive: -0.003	inactive: 0.034	inactive: -0.008	inactive: 0.01	inactive: 0.01	inactive: 0.009	inactive: -0.021	inactive: 0.017	inactive: -0.006	inactive: -0.007	inactive: -0.016
PGP (UniProt A6NDG6)	inactive: 0.008	inactive: 0.026	inactive: 0.043	inactive: 0.037	inactive: -0.021	inactive: 0.02	inactive: -0.021	inactive: -0.005	inactive: 0.004	inactive: 0.016	inactive: 0	inactive: 0.131	inactive: -0.015	inactive: 0.02	inactive: 0.034
PI4K2A (UniProt Q9BTU6)	inactive: 0.009	inactive: 0.03	inactive: -0.036	active: 0.207	inactive: -0.024	inactive: 0.01	inactive: -0.064	inactive: 0.071	active: 0.49	inactive: -0.004	inactive: -0.006	inactive: -0.005	inactive: 0.074	inactive: -0.009	inactive: 0.001
PLEC (UniProt Q15149)	inactive: -0.011	inactive: -0.016	inactive: 0.136	inactive: -0.003	inactive: -0.026	inactive: -0.026	inactive: -0.03	inactive: 0.019	inactive: 0.009	inactive: -0.004	inactive: 0.018	inactive: -0.113	inactive: 0.019	inactive: -0.02	inactive: 0
PIKFYVE (UniProt Q9Y2I7)	inactive: 0.017	inactive: -0.017	inactive: -0.022	inactive: -0.015	inactive: 0.009	inactive: -0.014	inactive: -0.035	inactive: 0.007	inactive: 0.027	inactive: -0.005	inactive: 0.031	active: -0.476	inactive: 0.03	inactive: -0.026	inactive: -0.014
PLAA (UniProt Q9Y263)	inactive: 0.015	inactive: -0.003	inactive: -0.017	inactive: -0.002	inactive: 0.016	inactive: -0.024	inactive: 0.012	inactive: 0.019	inactive: -0.018	inactive: -0.001	inactive: 0.008	inactive: -0.021	inactive: -0.025	inactive: 0.016	inactive: 0.001

Another view of part of the listing above:

| Target | log2 fold change (nilotinib) | log2 fold change [1] | log2 fold change (dasatinib) | log2 fold change [2] | log2 fold change [3] | log2 fold change (quisinostat) | log2 fold change (tipifarnib) | log2 fold change [4] | log2 fold change [5] | log2 fold change [6] | log2 fold change [7] | log2 fold change (vorinostat) | log2 fold change (silmitasertib) | log2 fold change [8] | log2 fold change (entospletinib) |
| --- | --- | --- | --- | --- | --- | --- | --- | --- | --- | --- | --- | --- | --- | --- | --- |
| PHF23 (UniProt Q9BUL5) | inactive: 0.033 | inactive: 0.019 | inactive: 0.026 | inactive: -0.016 | inactive: 0.042 | inactive: -0.028 | inactive: 0.031 | inactive: 0.019 | inactive: -0.056 | inactive: 0.038 | inactive: 0.023 | inactive: 0.059 | inactive: 0 | inactive: -0.029 | inactive: 0 |
| PGK1 (UniProt P00558) | inactive: 0.014 | inactive: -0.017 | inactive: -0.008 | inactive: 0.01 | inactive: -0.011 | inactive: 0.035 | inactive: 0.03 | inactive: 0.002 | inactive: -0.009 | inactive: 0.001 | inactive: 0.014 | inactive: 0.013 | inactive: -0.008 | inactive: 0.001 | inactive: 0.003 |
